Results are given in words; binding and its absence hold for the method and conditions named. Some binding calls cover weakened binding; strength is not graded here.

Chains of the proteins cited; added tags and fusions are not shown.
UniProt P61073: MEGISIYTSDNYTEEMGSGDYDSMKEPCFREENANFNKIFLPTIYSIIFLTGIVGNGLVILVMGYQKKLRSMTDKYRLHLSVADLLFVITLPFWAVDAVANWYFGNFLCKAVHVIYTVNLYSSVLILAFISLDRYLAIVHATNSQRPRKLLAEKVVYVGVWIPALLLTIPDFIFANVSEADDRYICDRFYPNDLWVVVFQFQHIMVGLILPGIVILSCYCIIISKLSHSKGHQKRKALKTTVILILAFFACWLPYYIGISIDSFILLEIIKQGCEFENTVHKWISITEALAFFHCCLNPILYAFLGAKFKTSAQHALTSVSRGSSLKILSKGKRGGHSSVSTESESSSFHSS

The chains are these.
B1: Phage sequence R-T-T-S-D-A-L (peptide)
peptide: RTTSDAL
B2: Phage sequence L-G-V-K-A-P-S (peptide)
peptide: LGVKAPS
B3: Phage sequence P-F-R-A-T-T-E (peptide)
peptide: PFRATTE
B4: Phage sequence H-T-Q-H-V-R-T (peptide)
peptide: HTQHVRT
B5: Phage sequence Q-Y-A-T-P-N-K (peptide)
peptide: QYATPNK
B6: Phage sequence Q-Q-R-S-T-A-F (peptide)
peptide: QQRSTAF
B7: Phage sequence P-A-H-Y-P-M-L (peptide)
peptide: PAHYPML
B8: Phage sequence D-L-Q-A-R-Y-S (peptide)
peptide: DLQARYS
B9: Phage sequence T-D-K-L-L-L-D (peptide)
peptide: TDKLLLD
B10: Phage sequence S-T-W-P-L-A-Q (peptide)
peptide: STWPLAQ

The test concerns the target CXCR4-GST (human) (UniProt P61073). The experiment in a line: phage display (NEB PhD C7C) on immobilized functional CXCR4, elution with SDF1α or glycine pH 2.2.
For the molecule B1, the binding result was “binds”. The value for B2 was “binds”; that for B3 was “binds”. For B4, the binding result is “binds”. With B5, the binding entry was “binds”. The value for B6 was “binds”; that for B7 was “binds”. The value for B8 was “binds”; that for B9 was “binds”. The value for B10 was “binds”.
